These are yes or no findings as the source states them, for the method shown. Some binding calls cover weakened binding; strength is not graded here. Sequences can lack the tags named with a protein.
Target: CD44v5 on the human colon carcinoma cell line HCT-116 (human) (UniProt P16070)
Test: fluorescence cytochemistry on fixed HCT-116 cells, Qdot-peptide conjugate 100 nM

Protein sequences, listed by entry. Tags and fused reporters are not part of them. Residues count along the entry.
UniProt P16070, residues 21-742: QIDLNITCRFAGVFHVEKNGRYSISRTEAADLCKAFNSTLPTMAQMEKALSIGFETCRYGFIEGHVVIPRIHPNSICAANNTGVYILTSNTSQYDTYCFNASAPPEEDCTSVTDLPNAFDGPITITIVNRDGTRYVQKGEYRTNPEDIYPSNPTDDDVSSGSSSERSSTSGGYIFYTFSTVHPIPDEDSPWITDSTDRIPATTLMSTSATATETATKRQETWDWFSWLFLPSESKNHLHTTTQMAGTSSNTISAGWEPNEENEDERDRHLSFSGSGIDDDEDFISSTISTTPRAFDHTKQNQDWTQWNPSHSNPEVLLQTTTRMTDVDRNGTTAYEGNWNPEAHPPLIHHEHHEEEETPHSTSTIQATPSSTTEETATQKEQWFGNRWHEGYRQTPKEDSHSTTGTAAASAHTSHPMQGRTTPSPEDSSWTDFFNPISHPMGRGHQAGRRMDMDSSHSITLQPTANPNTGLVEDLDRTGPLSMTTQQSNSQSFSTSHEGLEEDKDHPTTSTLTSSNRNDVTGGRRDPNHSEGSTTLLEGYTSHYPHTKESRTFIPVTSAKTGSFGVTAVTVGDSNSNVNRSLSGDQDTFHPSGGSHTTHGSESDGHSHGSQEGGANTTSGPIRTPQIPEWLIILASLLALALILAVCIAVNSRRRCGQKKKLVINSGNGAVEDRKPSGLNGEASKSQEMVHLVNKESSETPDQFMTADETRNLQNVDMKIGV

binding: binds
Binder: PGVPGVQLTANTQSLVLMSAFDIAIEVTFISSHHHHHH (peptide, not shown: large carriers, coupled via the His6-Tag to the QDBP-655 quantum dot) [MBP-(YTH_v5_A)-His6 fusion protein (peptide A) coupled to QDBP-655 quantum dots]
